Primary screen of a compound library

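Assay of Toxoplasma gondii numbers, read through their beta-galactosidase reporter with a colour substrate. Tested at 50 µM. Higher reads as fewer parasites (inferred from which compounds were picked for retests). About 18,000 compounds were tested under these conditions; 0.94% (about 170) showed 50% or more at least once.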

Results are given as percent effect. How 0% and 100% were set is not recorded. Most values in the screen are low, and negative values occur. This is an unselected part of the compounds tested.

{"compound": "Cc1nnc(C2CCCN2)o1", "stereo": "configuration not stated", "effect": 4.188}
{"compound": "CCc1cccc2c1OCCC2N", "stereo": "configuration not stated", "effect": -1.844}
{"compound": "CC(Oc1ccc(Cl)cc1C(N)=O)C(=O)N1CCCC1", "stereo": "configuration not stated", "effect": -1.215}
{"compound": "CC[C@H](N)c1ccccc1F", "effect": 12.07}
{"compound": "Cc1ccc(C#N)cc1S(=O)(=O)N1CCC[C@@H](N)C1", "effect": 0.1254}
{"compound": "CC(=O)NCCCS(=O)(=O)c1ccc(C)cn1", "effect": -5.9}
{"compound": "O=C(c1cnc(O)cn1)N1CCOC2(CCCC2)C1", "effect": 9.593}
{"compound": "CCN(C)CCNC(=O)c1cc(-c2ccccc2)[nH]n1", "effect": 9.24}
{"compound": "Cn1nccc1C(=O)NCc1cccs1", "effect": -1.017}
{"compound": "Cc1n[nH]cc1CNCC(O)COCC(C)C", "stereo": "configuration not stated", "effect": -20.44}
{"compound": "COCCN1CCCC(c2nccn2CCOC)C1", "stereo": "configuration not stated", "effect": -3.23}
{"compound": "COc1cc(Br)c(CN)cc1OC", "effect": 44.43}
{"compound": "NCC(=O)Nc1ccc2c[nH]nc2c1", "effect": 1.632}
{"compound": "O=c1[nH]cnc2cccc(O)c12", "effect": 22.15}
{"compound": "CN(C1(C#N)CCC1)S(=O)(=O)c1cccs1", "effect": 9.755}
{"compound": "OCCC1CCCCN1Cc1cccnc1", "stereo": "configuration not stated", "effect": 20.79}
{"compound": "c1ccc(-c2nc(CN3CCNCC3)co2)cc1", "effect": -11.72}
{"compound": "CC(C)OCCC1(N)CC1", "effect": 3.833}
{"compound": "CN1CCC(OCCCNC(=O)c2ccncc2)CC1", "effect": 40.52}
{"compound": "Cc1ccsc1CN(C)C(=O)CCN(C)S(C)(=O)=O", "effect": 4.895}
{"compound": "CCOC1CCCN(Cc2ccccn2)C1", "stereo": "configuration not stated", "effect": 28.37}
{"compound": "COc1cccc(CNC2CC(=O)N(C)C2)c1OC", "stereo": "configuration not stated", "effect": 3.5}
{"compound": "Cc1ccc2cccc(OCCN)c2n1", "effect": 8.165}
{"compound": "CCN(CC)C(CNC1=NCCN1)c1ccco1", "stereo": "configuration not stated", "effect": 1.624}
{"compound": "Nc1ccc(C(=O)NCC2(Cn3cccn3)CC2)cn1", "effect": 0.1007}
{"compound": "O=C1CC(C(=O)NCc2ccco2)C2(CCCCC2)O1", "stereo": "configuration not stated", "effect": -19.44}
{"compound": "NCc1cnc2ccccc2c1", "effect": -1.083}
{"compound": "CNC(C(N)=O)c1cccc(Br)c1", "stereo": "configuration not stated", "effect": -4.453}
{"compound": "CCc1nsc(N2CCSCC2)n1", "effect": 1.879}
{"compound": "Cc1cccnc1CCN", "effect": -1.195}
{"compound": "O=C(c1ccoc1)N1CCC(NC2CCSCC2)CC1", "effect": 3.841}
{"compound": "Cc1ccc(S(=O)(=O)NC(CN)C2CC2)c(F)c1", "stereo": "configuration not stated", "effect": -3.581}
{"compound": "O=C(CC1CNCCO1)NCc1ccc2sccc2c1", "stereo": "configuration not stated", "effect": 9.859}
{"compound": "COCCN(C)CC1CCCN1", "stereo": "configuration not stated", "effect": 0.1288}
{"compound": "Cc1ccc2c(c1)OC(C)CN2C(=O)c1ccccn1", "stereo": "configuration not stated", "effect": 22.69}
{"compound": "CC1=Nc2ccccc2CN1", "effect": -7.547}
{"compound": "O=C(Nc1cccnn1)N[C@H]1c2ccccc2C[C@H]1O", "effect": -3.335}
{"compound": "CC(C)OCCCNC(=O)C1(S(C)(=O)=O)CC1", "effect": -8.2}
{"compound": "N#CCCN1CCC(C(=O)NCc2ccccc2)CC1", "effect": -12.29}
{"compound": "Cc1ocnc1CNC(=O)CN(C)C(=O)c1cccs1", "effect": 3.596}
{"compound": "CCOC(=O)C1CCN(Cc2nccn2C)CC1", "effect": 2.438}
{"compound": "CCN1CCN(CC(=O)Nc2cc(C)cc(C)c2)CC1", "effect": 5.715}
{"compound": "O=C(CNC(=O)N1CCC1)Nc1ccc(F)c(F)c1", "effect": 6.008}
{"compound": "COCCn1cncc1CNC(=O)CN1CCCC1", "effect": -2.566}
{"compound": "CNCCNC(C)=O", "effect": -0.318}
{"compound": "CC(NS(C)(=O)=O)C(=O)N1CCc2ccc(Br)cc21", "stereo": "configuration not stated", "effect": -12.39}
{"compound": "Cc1ccc(CNC(=O)NC(C)Cn2cccn2)n1C", "stereo": "configuration not stated", "effect": -17.57}
{"compound": "COCCN(CCN(C)C)C(=O)Nc1ccncc1", "effect": -3.385}

6 of the entries, repeated:

compound	effect
O=C(c1cnc(O)cn1)N1CCOC2(CCCC2)C1	9.593%
Cc1nnc(C2CCCN2)o1 (configuration not stated)	4.188%
Cc1ccc2c(c1)OC(C)CN2C(=O)c1ccccn1 (configuration not stated)	22.69%
Cc1n[nH]cc1CNCC(O)COCC(C)C (configuration not stated)	-20.44%
CNC(C(N)=O)c1cccc(Br)c1 (configuration not stated)	-4.453%
CNCCNC(C)=O	-0.318%

Source: ChEMBL document CHEMBL3988442, “University of Dundee, Small-Polar-MMV Screening Library” (2021).